Measured values reported in publication PMC7819943, “Rice protein-binding microarrays: a tool to detect cis-acting elements near promoter regions in rice”.
Some of the results follow.

Biological target: T1, OsSMF1 (Oryza sativa, UniProt Q6ZLB0 1-436)
T1 sequence: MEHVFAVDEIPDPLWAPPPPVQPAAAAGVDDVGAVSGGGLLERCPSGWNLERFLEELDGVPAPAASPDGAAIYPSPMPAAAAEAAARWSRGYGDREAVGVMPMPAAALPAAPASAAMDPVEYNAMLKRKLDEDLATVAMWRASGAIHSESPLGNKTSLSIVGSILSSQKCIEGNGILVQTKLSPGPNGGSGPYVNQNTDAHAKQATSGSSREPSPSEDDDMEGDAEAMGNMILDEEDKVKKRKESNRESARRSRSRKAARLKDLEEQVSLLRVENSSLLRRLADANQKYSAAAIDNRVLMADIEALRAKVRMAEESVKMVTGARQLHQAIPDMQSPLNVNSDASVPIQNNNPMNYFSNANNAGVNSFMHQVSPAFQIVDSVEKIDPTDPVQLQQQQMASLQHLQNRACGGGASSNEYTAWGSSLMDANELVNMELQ
Assay: protein-binding microarray (RPBM); PBS, 2% BSA, 51.3 ng/ul salmon testes DNA, 50 uM zinc acetate, 200 nM TF, 25 C, 1 h; high values mean tight binding
Settings: protein: recombinant; tags: N-terminal polyhistidine and DsRed monomer fusion (pET32a); chain copies: 2; label: CyDye5-dUTP incorporated in the synthesized complementary strand; 3' TTTTT single-stranded linker to array surface; dsDNA, one strand shown
Summary of the method: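 For the binding signal, per-feature fluorescence intensity was read in arbitrary units on an Axon 4000B scanner. Before scanning, a 2% BSA-blocked custom Agilent array made double-stranded with Cy5-dUTP was washed after 1 h at 25 °C with 200 nM protein and 50 µM zinc acetate. The proteins were Ni–NTA-purified transcription factors with N-terminal polyhistidine and DsRed fusions, expressed in E. coli BL21-CodonPlus.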

Row | Sequence | binding signal
1 | GCCAATGACGATAAGAGCAAAGACGGACGGGAGGGGAGGGCGGAGTCACCTAGTGCAG | 3530 fluorescence intensity (a.u.)
2 | TCTACTTGTAAAGGCCCAAGGCCCATGTGGCCGTGCACCTCGGAGTCACCTAGTGCAG | 19800 fluorescence intensity (a.u.)
3 | AATTAATCACTTGCTAATGACACGTCTCATTTTGCGTGCTCGGAGTCACCTAGTGCAG | 7580 fluorescence intensity (a.u.)
4 | CCTCCTCCCATCGTTGCTGCCACCGCGTCTCCTCCCAATCCGGAGTCACCTAGTGCAG | 3420 fluorescence intensity (a.u.)
5 | TTAGTTGTTCTTGTTCTCTTGGTTGGGACGTGGAGAGTTGCGGAGTCACCTAGTGCAG | 3440 fluorescence intensity (a.u.)
6 | CTTTGTAATACTTTGTAGGACTTTCTGTTAATATACTCCTCGGAGTCACCTAGTGCAG | 30100 fluorescence intensity (a.u.)
7 | GATATTTCTCTTCCCATCCGGCAACCGACAGGGGAGCATTCGGAGTCACCTAGTGCAG | 20000 fluorescence intensity (a.u.)
8 | TAGCCGTTAGTGCCACGTGGCGCCTTCCCATTCGACCGCCCGGAGTCACCTAGTGCAG | 40600 fluorescence intensity (a.u.)
9 | ATTTTATGCTAGATGGTGACGTTACACGTGCCATTATTCACGGAGTCACCTAGTGCAG | 10400 fluorescence intensity (a.u.)
10 | AGAACCTTCCGCGCTTCCGTGCTCCCCACCGCCACCTCGCCGGAGTCACCTAGTGCAG | 3430 fluorescence intensity (a.u.)
11 | AGAAATCTGCAATGTGGGTTGGTGATGAAAATGGTGATGCCGGAGTCACCTAGTGCAG | 6180 fluorescence intensity (a.u.)
12 | TGGAAAGAATACAGTATGATATGGTCTTATTTTGTCTGCCCGGAGTCACCTAGTGCAG | 41200 fluorescence intensity (a.u.)
13 | ATATTTTATCATCATCAGCCGATTGCCTTTATATCATCATCGGAGTCACCTAGTGCAG | 3140 fluorescence intensity (a.u.)
14 | TTGCCCAGTTCCTCATTGACCAGCACATCAACTTTGATTGCGGAGTCACCTAGTGCAG | 3820 fluorescence intensity (a.u.)
15 | CTTTTGGATGCCAGCTCACAGCTCATCAATACATCACCATCGGAGTCACCTAGTGCAG | 11200 fluorescence intensity (a.u.)
16 | GACGCGTCGGTGCTGATTGACTCGACGGCCGGCAACGTGGCGGAGTCACCTAGTGCAG | 3810 fluorescence intensity (a.u.)
17 | AACATATCGTACGTATAGCAGCCCTCGAAAGAGTAGAGCCCGGAGTCACCTAGTGCAG | 32000 fluorescence intensity (a.u.)
18 | AGGCATGCATGCTCATGTCAGACGTGACGACTTGCAAAATCGGAGTCACCTAGTGCAG | 4560 fluorescence intensity (a.u.)
19 | GGATTTTGCGAGGTTTCCTCTTCCTCCACGCTCTCGAATCCGGAGTCACCTAGTGCAG | 36300 fluorescence intensity (a.u.)
20 | CCAACCAACATCCCACATCGAACCATGCATTATTTATGAACGGAGTCACCTAGTGCAG | 17300 fluorescence intensity (a.u.)
21 | TAGTAGCTTAATTGCTAGCTAGTGGTCACTGGTCAGTATACGGAGTCACCTAGTGCAG | 4030 fluorescence intensity (a.u.)

A second format for part of the listing above:
Row,Sequence,binding signal
6,CTTTGTAATACTTTGTAGGACTTTCTGTTAATATACTCCTCGGAGTCACCTAGTGCAG,30100 fluorescence intensity (a.u.)
7,GATATTTCTCTTCCCATCCGGCAACCGACAGGGGAGCATTCGGAGTCACCTAGTGCAG,20000 fluorescence intensity (a.u.)

Next part.

Row | Sequence | binding signal
22 | TTTTATCAGCTGCTTGGATGTGCCACGTAGCACGAGGTGCCGGAGTCACCTAGTGCAG | 14600 fluorescence intensity (a.u.)
23 | ATCAACGGATGATCATTAGCACGAAGAAGATGACGTGGCTCGGAGTCACCTAGTGCAG | 31800 fluorescence intensity (a.u.)
24 | TTAGTATGAACAAAGGCCATGACCTGGAGGAGATAAAAGGCGGAGTCACCTAGTGCAG | 3480 fluorescence intensity (a.u.)
25 | GTTGGTTAATTTAGTGTTGTTGGTTGCTTGGCGACGTCATCGGAGTCACCTAGTGCAG | 3860 fluorescence intensity (a.u.)
26 | AACTGGGGTTTAATCCGCATCACCAAACACCCCTCCACTTCGGAGTCACCTAGTGCAG | 4040 fluorescence intensity (a.u.)
27 | TGGCGCTGACCTTGGCTACTTAGAGCCCGGCCGAGGCCGCCGGAGTCACCTAGTGCAG | 30000 fluorescence intensity (a.u.)
28 | ATATATATCTCCATCTCGAGTGCCTGGATCACATCAGCAACGGAGTCACCTAGTGCAG | 3460 fluorescence intensity (a.u.)
29 | TACTGTTGTTTGCATGTGTAAACAAATTCAAATGCATTAACGGAGTCACCTAGTGCAG | 5410 fluorescence intensity (a.u.)
30 | GCTGACGTCGGCATGACGTCAGCGCCCGATTTATGTGTAACGGAGTCACCTAGTGCAG | 21200 fluorescence intensity (a.u.)
31 | TCCTCGGCCGCAGTATCGTATCCGCACCTCCAGCTCAGTGCGGAGTCACCTAGTGCAG | 3850 fluorescence intensity (a.u.)
32 | CAGAAAAGACGCCGCTGATGTGGTGCTGGAAACGTGGGTGCGGAGTCACCTAGTGCAG | 4180 fluorescence intensity (a.u.)
33 | ACTCCAGTATGTATGAGTGTTGTGTTTGAGGGGTGTGTATCGGAGTCACCTAGTGCAG | 4050 fluorescence intensity (a.u.)
34 | CTACTAATTAGTAGTGCTGTGCATAAGCTCAGACTCAGGGCGGAGTCACCTAGTGCAG | 3350 fluorescence intensity (a.u.)
35 | AATAATTTCATAACTCGCCTGGAAACCACGTGACGAATCTCGGAGTCACCTAGTGCAG | 4280 fluorescence intensity (a.u.)
36 | TTTTGAGCTACCTTCTGGTGTTTTGACGTGTTATATTCATCGGAGTCACCTAGTGCAG | 5140 fluorescence intensity (a.u.)
37 | GTTTGGAATTTTGGATAGAAATTCCGGGCGTGACACATCGCGGAGTCACCTAGTGCAG | 5880 fluorescence intensity (a.u.)
38 | GCCAGCACTAGATGAGCTACCGCTGCCCTAGATGTTGGGTCGGAGTCACCTAGTGCAG | 10300 fluorescence intensity (a.u.)
39 | GCCTCTTCGTTCAAACTTCAAACCAAGCTTTGGCCTTTGGCGGAGTCACCTAGTGCAG | 3400 fluorescence intensity (a.u.)
40 | TACACGGGAAGCATACGTGCATACGATATGTTCCCAATGACGGAGTCACCTAGTGCAG | 3290 fluorescence intensity (a.u.)
41 | CTGTGCTTCTCCTCCGCGCTCCACATCACATCGCATCACCCGGAGTCACCTAGTGCAG | 5050 fluorescence intensity (a.u.)
42 | CAACGGCTATGAGCTGTCACACACTCACAGTAGTACTCCGCGGAGTCACCTAGTGCAG | 3850 fluorescence intensity (a.u.)
